From the supplement of paper PMC10338343 come the findings set out here.

± gives the standard deviation. The entries are a selection whose mix differs from that of the whole data set. Many entries were measured with a wide error.

This assay has as its system MIWI (PIWIL1) piRISC loaded with Kctd7 piRNA (30 nt). Kind of assay: pre-steady-state target cleavage rate (min^-1); MIWI and MILI are mouse PIWI proteins and EfPiwi is from a freshwater sponge; tags in brackets are library labels; higher = faster piRNA-guided slicing of the target. The settings on record: guide: Kctd7 piRNA 5'p-UGUUAAUCUCUCAGAGAAGGUGACAGUGAU; auxiliary factor: 500 nM mouse GTSF1. The essentials:
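Active affinity-purified piRISC (1 nM) loaded with one synthetic guide was mixed with a transcribed, DNA-blocked target RNA library (0.1 nM), with or without 500 nM GTSF1 partner protein, in HEPES–potassium acetate buffer at 33 °C for 0–8 or 0–960 min. Uncleaved targets were sequenced, normalised to depth and to weakly complementary targets, and pooled across three trials, with k3 capped at 0.0001 min^-1. The pre-steady-state cleavage rate was determined with a burst-and-steady-state fit.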
As for UAGUGACUCACCUUCUCUGAGACAUUUUGA, the “pre-steady-state target cleavage rate” value was determined as 0.000488 ± 0.011.

Take UAGUGUGUCACCUUCUCUGGAGAGAUUAACA: the “pre-steady-state target cleavage rate” value is 0.00122 ± 0.013.

With UUCACAGUCACCUUCUCUGAGAGAUUAACA, the “pre-steady-state target cleavage rate” value came out at 0.656 ± 0.027.

For the sequence AUCACUGUCACCUUCUCUGACUGAUUUUGA, the “pre-steady-state target cleavage rate” value turned out to be 0.00307 ± 0.0036.

As to UACACUCUCACCUUCUCUGUGAGAUUAACA, the “pre-steady-state target cleavage rate” value is 0.141 ± 0.014.

For the sequence UAGACUGUCACCUUCUCUGAGACAUAAACA, the “pre-steady-state target cleavage rate” value turned out to be 0.00199 ± 0.0039.

For UAGUGACAGACCUUCUCUGAGAGAAUUACA, the “pre-steady-state target cleavage rate” value is 0.00351 ± 0.0051.

Consider UAGUGACACACCUUGUCUGAGAGAUAUUGA, for which the “pre-steady-state target cleavage rate” value came out at 0.0008 ± 0.011.

Regarding UAGUCUGACACCUUCUCUGAGAGAUAUUGA, the “pre-steady-state target cleavage rate” value worked out at 0.00198 ± 0.0037.

Take UAGUCUGUCACCUUCUCUGACUCAUUUUGA: the “pre-steady-state target cleavage rate” value is 0.00125 ± 0.0044.

“UAGUCUGUCACCUUCUCUGUCUCUAAUUGA [g12:g26:cont:t1A]”: the “pre-steady-state target cleavage rate” value was determined as 0.00147 ± 0.0068.

As for UAGUGACAGUGGAAGAGAGAGAGAUAAUCA, the “pre-steady-state target cleavage rate” value worked out at 0.000229 ± 0.023.

As to UAGUGACAGACCUUCUCUCAGUGAUUAACA, the “pre-steady-state target cleavage rate” value was 0.002 ± 0.0053.

Consider “UUCACUGUCACCUUCUCUGUCUCUAAUUGA [g12:g29:cont:t1A]”, for which the “pre-steady-state target cleavage rate” value turned out to be 0.00372 ± 0.0039.

Consider UAGUGAGUCAGCUUCUCUGAGAGAUAUUGA, for which the “pre-steady-state target cleavage rate” value was 0.00249 ± 0.0048.

In the case of UAGUGUGUCUGCUUCUCUGAGAGAUUUUGA, the “pre-steady-state target cleavage rate” value turned out to be 0.000801 ± 0.0072.

Turning to UAGUGUGUCACCUUCUCUGUCUGAUUAAGA, the “pre-steady-state target cleavage rate” value was 0.00222 ± 0.0083.

As for UAGUGACAGUGGUUCUGUGUGAGAUUAACA, the “pre-steady-state target cleavage rate” value was found to be 0.000138 ± 0.067.

With UAGUCUGAGUCCUUCUCUGAGAGAUUAUGA, the “pre-steady-state target cleavage rate” value was determined as 0.00174 ± 0.0042.

On to UAGUGACAGUCCUUCUCUGAGAGUAAAACA, for which the “pre-steady-state target cleavage rate” value amounted to 0.000846 ± 0.0052.

With UAGACUGUCAGCUUCUCUGAGAGAUUAUCA, the “pre-steady-state target cleavage rate” value was 0.171 ± 0.024.

In the case of UAGUGACAGUGCUUGAGUGAGAGAUUAACA, the “pre-steady-state target cleavage rate” value is 0.000404 ± 0.02.

For UAGACUGUCACGAUCUCUGAGAGAUUAUGA, the “pre-steady-state target cleavage rate” value was 0.00277 ± 0.0029.

For UAGUGACUCACCUUCUGACAGAGAUUUUGA, the “pre-steady-state target cleavage rate” value was 0.000219 ± 0.038.

As to UAGUGACAGUCCUUCACUGAGAGAUUAUGA, the “pre-steady-state target cleavage rate” value amounted to 0.000905 ± 0.0091.

Consider UAGUGACAGACCUUCUGUGACAGAUUAACA, for which the “pre-steady-state target cleavage rate” value came out at 0.003 ± 0.0049.

Turning to UAGUGACAGACCAUCUCUGAGAGAAUAACA, the “pre-steady-state target cleavage rate” value came to 0.00244 ± 0.0047.

With UUCAGUGUCAGCUUCUCUGAGAGAUUAACA, the “pre-steady-state target cleavage rate” value was found to be 0.609 ± 0.032.

On to UAGUGACAGUGGAAGAGUGAGUCAUUAACA, for which the “pre-steady-state target cleavage rate” value was determined as 0.000579 ± 0.012.

For the sequence UUCACUGUUCACCUUCUCUGAGAGAUUAACA, the “pre-steady-state target cleavage rate” value is 0.633 ± 0.036.

As to UAGUGACAGACGUACUCUGAGAGAUUAACA, the “pre-steady-state target cleavage rate” value was 0.000693 ± 0.0079.

In the case of UAGUGACAGACGUUCUCUGAGUGAUUAACA, the “pre-steady-state target cleavage rate” value amounted to 0.00212 ± 0.0058.

For the sequence UAGUGUGUCACCAUCUCUGACAGAUUAACA, the “pre-steady-state target cleavage rate” value worked out at 0.222 ± 0.021.

Take UAGUGAGUCAGGAUCUCUGAGAGAUUAUGA: the “pre-steady-state target cleavage rate” value came to 0.00046 ± 0.01.

For the sequence AUCACUGUCACCUUCUCUGAGAAUUAACA, the “pre-steady-state target cleavage rate” value stood at 0.366 ± 0.11.

For the sequence UAGACUCACACCUUCUCUGAGAGAUUAUGA, the “pre-steady-state target cleavage rate” value came out at 0.0733 ± 0.015.

With UAGUGACAGUGCUUCUGUGAGACAUUAACA, the “pre-steady-state target cleavage rate” value stood at 0.000584 ± 0.012.

In the case of AUCACCUGUCACCUUCUCUGAGAGAUUAACA, the “pre-steady-state target cleavage rate” value stood at 0.742 ± 0.05.

As for UAGUGACAGACCUUGAGUGAGAGAUUAAGA, the “pre-steady-state target cleavage rate” value worked out at 0.000378 ± 0.031.

As for UUCACUGUCACCUUGCUCUGAGAGAUUAACA, the “pre-steady-state target cleavage rate” value was found to be 0.747 ± 0.11.

In the case of UACACUGUCACCUUCUCUGAGUGAUUUACA, the “pre-steady-state target cleavage rate” value came to 0.0176 ± 0.0081.

Turning to UAGUGAGUCACCUUCUCUCAGAGAUAUUGA, the “pre-steady-state target cleavage rate” value was determined as 0.00272 ± 0.0046.

As for UACACUGUCACCUUCUCUGACUCAUUUUGA, the “pre-steady-state target cleavage rate” value came out at 0.00221 ± 0.0058.

Consider UAGUGACAGACCUACUCUGAGAGAAUAACA, for which the “pre-steady-state target cleavage rate” value stood at 0.000971 ± 0.0071.

In the case of UAGUGACUCACCUUCUCAGAGAGAUAUUGA, the “pre-steady-state target cleavage rate” value is 0.00265 ± 0.004.

Turning to UAGUGACAGUGGAUCUCUGAGACAUUAUCA, the “pre-steady-state target cleavage rate” value was 0.000205 ± 0.028.

Take UACACUGUCACCUUCUCUGAGACUAUUUGA: the “pre-steady-state target cleavage rate” value came to 0.00281 ± 0.0039.

On to UAGUCUGUCACCUUCUCUGAGACAUUAUCA, for which the “pre-steady-state target cleavage rate” value turned out to be 0.0172 ± 0.0056.

Take UAGUGACAGUGGAACUCUGAGACGAUUAACA: the “pre-steady-state target cleavage rate” value amounted to 0.00094 ± 0.015.

Turning to UAGUGACAGUCCUUCUCUGAGAGUAUAACA, the “pre-steady-state target cleavage rate” value stood at 0.00115 ± 0.0054.

Turning to UAGUGACAGUGGAUUCUCUGAGAGAUUAACA, the “pre-steady-state target cleavage rate” value was found to be 0.000155 ± 0.022.

As for UAGUGACAGUCCUACUCUGAGAGUUUAACA, the “pre-steady-state target cleavage rate” value turned out to be 0.00174 ± 0.0035.

Take AUCACUUGUCACCUUCUCUGAGAGAUUAACA: the “pre-steady-state target cleavage rate” value was determined as 0.754 ± 0.12.

Turning to UAGUGACAGUCCUUCUCUCAGAGAUUAUCA, the “pre-steady-state target cleavage rate” value amounted to 0.00189 ± 0.0057.

In the case of UAGUGACAGUCCAUCUGUGAGAGAUUAACA, the “pre-steady-state target cleavage rate” value was found to be 0.000797 ± 0.0079.

For UAGUGACUCACCUUCUGUCAGAGAUUAACA, the “pre-steady-state target cleavage rate” value came out at 0.0013 ± 0.0063.

Regarding UAGUGACAGUGGAAGAGACUGAGCAUUAACA, the “pre-steady-state target cleavage rate” value came to 0.00041 ± 0.013.

On to UAGUGACAGUGCUUCUGUGUGAGAUUAACA, for which the “pre-steady-state target cleavage rate” value turned out to be 0.00168 ± 0.0067.

Take UAGUGUGUCACCUUCUCUGAGUGAUUAUGA: the “pre-steady-state target cleavage rate” value is 0.00172 ± 0.0057.

Regarding UAGUGAGUCACCUUCUGAGAGAGAUAUUGA, the “pre-steady-state target cleavage rate” value is 0.00124 ± 0.0088.

On to UACACUGUCACGUUCUCUGAGAGAUUAACA, for which the “pre-steady-state target cleavage rate” value is 0.743 ± 0.037.

On to UAGUGACAGACCUUGUCUCAGAGAUUAACA, for which the “pre-steady-state target cleavage rate” value amounted to 0.00105 ± 0.0057.

Consider ACCACUGUCACCUUCUCUGAGAGAUUAACA, for which the “pre-steady-state target cleavage rate” value amounted to 0.715 ± 0.039.

As to UAGUGAGUCACCUUCUCUCUCAGAUUUUGA, the “pre-steady-state target cleavage rate” value was found to be 0.00148 ± 0.0097.

In the case of AACACUGUCUCCUUCUCUGAGAGAUUAACA, the “pre-steady-state target cleavage rate” value was found to be 0.738 ± 0.039.

For the sequence UAGUGACAGUGGAAGAGAGAGAGAAUUACA, the “pre-steady-state target cleavage rate” value came to 0.000296 ± 0.023.

For the sequence UAGUGACAGUCCUUCUCUGAGACAUUUACA, the “pre-steady-state target cleavage rate” value worked out at 0.000611 ± 0.0086.

In the case of UAGUGACACAGCUUCUCUGAGAGAUUUUGA, the “pre-steady-state target cleavage rate” value was 0.000748 ± 0.0083.

With UAGACUGAGACCUUCUCUGAGAGAUAUUGA, the “pre-steady-state target cleavage rate” value amounted to 0.00183 ± 0.0048.

As for UAGUGACAGUGGAAGUCUGAAAGAUUAACA, the “pre-steady-state target cleavage rate” value came to 0.000112 ± 0.037.

On to UAGUCUGUCACCAUCUCUGAGAGAUUAUGA, for which the “pre-steady-state target cleavage rate” value came to 0.021 ± 0.0082.

As for UAGUGACUCACGAUCUCUGAGAGAUUAAGA, the “pre-steady-state target cleavage rate” value worked out at 0.00113 ± 0.0098.
